Holding throughout (assay): co-IP; S. pombe cell lysates made by glass bead beating; GFP-trap or RFP-trap agarose beads to precipitate YFP- or mCherry-tagged proteins; Atg5-Atg16 tested in wild-type, atg12Δ and atg18aΔ cells
One experiment concerns the target T1, Atg6-YFP (S. pombe) (UniProt P87117).
T1 sequence: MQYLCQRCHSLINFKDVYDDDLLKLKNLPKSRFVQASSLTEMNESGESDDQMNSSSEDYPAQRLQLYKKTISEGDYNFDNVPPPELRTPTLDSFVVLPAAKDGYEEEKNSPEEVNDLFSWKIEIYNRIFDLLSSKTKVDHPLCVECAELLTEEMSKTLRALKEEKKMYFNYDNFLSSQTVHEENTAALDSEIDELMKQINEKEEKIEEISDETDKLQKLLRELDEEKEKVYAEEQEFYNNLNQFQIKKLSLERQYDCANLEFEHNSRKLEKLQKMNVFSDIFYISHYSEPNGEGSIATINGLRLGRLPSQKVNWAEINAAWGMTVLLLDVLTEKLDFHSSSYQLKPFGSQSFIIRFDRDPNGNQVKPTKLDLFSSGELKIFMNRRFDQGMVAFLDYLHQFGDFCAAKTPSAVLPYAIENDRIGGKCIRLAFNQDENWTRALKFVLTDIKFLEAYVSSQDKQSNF

The target in a further experiment is T2, Atg18a (S. pombe) (UniProt Q9HDZ7).
T2 sequence: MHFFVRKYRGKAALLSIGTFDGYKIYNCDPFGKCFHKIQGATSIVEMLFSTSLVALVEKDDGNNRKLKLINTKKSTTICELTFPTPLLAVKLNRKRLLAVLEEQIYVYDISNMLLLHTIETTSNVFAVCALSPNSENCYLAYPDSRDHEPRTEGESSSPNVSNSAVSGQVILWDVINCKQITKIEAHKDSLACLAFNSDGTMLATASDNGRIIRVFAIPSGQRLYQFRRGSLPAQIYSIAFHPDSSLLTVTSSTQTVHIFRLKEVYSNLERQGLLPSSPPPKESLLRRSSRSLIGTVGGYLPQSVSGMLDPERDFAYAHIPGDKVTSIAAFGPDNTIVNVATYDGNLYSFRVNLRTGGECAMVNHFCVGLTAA

Another experiment addresses T3, Atg9 (S. pombe) (UniProt O74312).
T3 sequence: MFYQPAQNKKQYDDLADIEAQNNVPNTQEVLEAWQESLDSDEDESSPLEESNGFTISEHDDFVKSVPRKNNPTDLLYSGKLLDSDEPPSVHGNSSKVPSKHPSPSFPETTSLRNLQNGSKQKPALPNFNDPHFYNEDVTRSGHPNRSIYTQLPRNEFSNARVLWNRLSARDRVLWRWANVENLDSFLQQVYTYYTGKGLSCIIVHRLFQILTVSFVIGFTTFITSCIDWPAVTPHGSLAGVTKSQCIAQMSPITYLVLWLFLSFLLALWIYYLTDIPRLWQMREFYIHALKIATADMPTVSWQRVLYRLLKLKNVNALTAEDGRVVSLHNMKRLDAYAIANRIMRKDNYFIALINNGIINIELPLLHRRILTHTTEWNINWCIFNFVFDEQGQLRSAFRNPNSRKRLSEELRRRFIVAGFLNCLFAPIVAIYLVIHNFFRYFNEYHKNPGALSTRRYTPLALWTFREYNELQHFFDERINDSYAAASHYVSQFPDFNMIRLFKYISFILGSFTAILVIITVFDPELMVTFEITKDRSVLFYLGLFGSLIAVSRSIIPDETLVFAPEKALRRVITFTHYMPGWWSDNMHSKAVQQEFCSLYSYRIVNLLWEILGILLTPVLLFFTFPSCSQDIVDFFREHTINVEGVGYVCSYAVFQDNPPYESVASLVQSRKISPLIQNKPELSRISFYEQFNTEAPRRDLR

For a further experiment, the target named is T4, Ctl1 (S. pombe) (UniProt O74441).
T4 sequence: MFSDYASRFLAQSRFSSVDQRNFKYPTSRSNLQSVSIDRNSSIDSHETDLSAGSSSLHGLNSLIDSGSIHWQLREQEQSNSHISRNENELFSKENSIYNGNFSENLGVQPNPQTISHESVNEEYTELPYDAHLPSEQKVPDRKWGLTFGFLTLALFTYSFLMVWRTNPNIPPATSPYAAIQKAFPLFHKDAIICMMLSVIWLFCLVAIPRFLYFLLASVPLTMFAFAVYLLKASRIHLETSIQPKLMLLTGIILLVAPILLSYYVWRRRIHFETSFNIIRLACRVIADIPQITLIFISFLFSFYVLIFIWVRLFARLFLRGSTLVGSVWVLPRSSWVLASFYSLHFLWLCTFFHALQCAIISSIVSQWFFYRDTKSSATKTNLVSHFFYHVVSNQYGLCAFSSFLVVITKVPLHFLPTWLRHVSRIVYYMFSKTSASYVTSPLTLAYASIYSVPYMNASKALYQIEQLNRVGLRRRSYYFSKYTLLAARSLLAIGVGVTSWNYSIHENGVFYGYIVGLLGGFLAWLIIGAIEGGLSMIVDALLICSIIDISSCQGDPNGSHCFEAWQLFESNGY

For experiment [1], the target named is T5, Atg5 (as used in the reciprocal co-IP with Atg18a, Figure 4D) (S. pombe) (UniProt O74971).
T5 sequence: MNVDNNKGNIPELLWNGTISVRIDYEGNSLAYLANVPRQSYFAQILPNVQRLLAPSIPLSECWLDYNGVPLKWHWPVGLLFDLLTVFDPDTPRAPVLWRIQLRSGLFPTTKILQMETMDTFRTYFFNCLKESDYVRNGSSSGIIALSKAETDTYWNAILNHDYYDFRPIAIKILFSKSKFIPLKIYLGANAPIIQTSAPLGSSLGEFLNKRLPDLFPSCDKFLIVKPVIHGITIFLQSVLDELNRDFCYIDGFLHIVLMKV

The record followed here is article PMC3738441.

No constants are given. Whether binding was seen depends on the method and setting. Binding seen in cells or lysates may run through a third protein. Some binding calls cover weakened binding; strength is not graded here. For some assays here: Sequences can lack the tags named with a protein.

B1: Atg14-Myc (protein, UniProt O42862 1-390)
chain: MLHVNKCQLCETRRPSICESCLKKQLYDFYHKRDEFSRDIESELEKVAKLKSESFSLKGKITQKEELTYRLQNLAASLNEKKSLSCDLHSRKQLIEDDLSNRKKSINIASQKLAGLSHSTSDYFSKEYLTAYRRSELLQNKLHEYQKKLITRVLDMYQLHWQRDLVLNTQGCTQKSAQMGSEFNPDSIDSSLAYRLSKLSMGNSKSDLSHSDNETGHFYSNFFSQVMELNASVTISGIPVCIRSKEKMFLNPDCALTLSFICIFLAQYTSIPLPCPLQLPSPDQKPMTSFSSEQMLYIMYNIVWISWNCGIFSFPRGITQSQLFELMQYTGFWLVQLRTKPLTSQKPDWHYKMGMDFDLFHRLYLARLPIPINYSSLRSRSSSKPYQLIS
As for B1, in the experiment with Atg6-YFP (S. pombe), the binding entry is given as “binds”.

B2: Atg5 (as used in the reciprocal co-IP with Atg18a, Figure 4D) (protein, UniProt O74971 1-261)
chain: T5 sequence
As for B2, the binding result in the experiment with Atg18a (S. pombe) was “binds”.

B3: Ctl1 (protein, UniProt O74441 1-574)
chain: T4 sequence
For the molecule B3, the binding result with Atg9 (S. pombe) is on record as “binds”.

B4: Atg9 (protein, UniProt O74312 1-702)
chain: T3 sequence
On to B4, for which the binding result with Ctl1 (S. pombe) is reported as “binds”.

B5: Atg18a (protein, UniProt Q9HDZ7 1-373)
chain: T2 sequence
Turning to B5, the binding result in experiment [1] is on record as “binds”.
